Earlier results, collected in patent US20090105349A1, “ANDROGEN MODULATORS” (WARNER-LAMBERT COMPANY LLC, priority 2004, published 2009).
At least one structure is not confirmed: it was looked up by name or label, or the drawing left a doubt.

Tested on: hair growth in subjects
Conditions: cited from earlier work
[1] = Roenigk: 83 males, topical solution of 3% minoxidil, 19 months

For `Nc1cc(N2CCCCC2)nc(N)[n+]1[O-]` [minoxidil, Minoxidil], the “subjects in whom hair growth occurred” value [1] is given as 55%, the “subjects who considered the growth cosmetically relevant” value [1] is given as 20% and the “subjects with cosmetically acceptable re-growth” value (Tosti, Dermatologica 1986) is given as 18.1%.
